These results are taken from PubChem BioAssay AID493014 (National Center for Advancing Translational Sciences (NCATS), 2011).

This is one part of the list. Further columns of the screen follow, without active or inactive calls. Most of these compounds were active or inconclusive in the main read-out, so they are no random draw. Words in brackets tell the shape of the fitted curve; partial curves, single points and poor fits give uncertain potencies.

The test can be described thus: qHTS Assay to Find Inhibitors of Chronic Active B-Cell Receptor Signaling. To be noted: ABC-DLBCL IkBa-CBG/CBR reporter, luminescence ratio (green luciferase fused to IkBa over red control in TMD8 lymphoma cells), 4 h. Put shortly:
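TMD8 ABC-DLBCL cells carrying doxycycline-inducible green luciferase fused to IkappaBalpha plus unfused red luciferase were exposed to compounds (up to 46 uM) for 4 hrs at 37C. Activity came from the overlap-corrected green/red luminescence ratio.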

Setting [1] is: measured here: CBR red luminescence, cell number.
Where [2] appears, read: measured here: IkBa-CBG green luminescence.

On to `CCCCCCCCCC(=O)OCC(O)CO` (configuration not stated), for which, under setting [1], the AC50 is 0.291 µM [rising, full curve, poor fit].
Still for that read-out and setting: to `CCn1cc(C(=O)NNC(=O)c2ccc(Cl)cc2)c(=O)c2ccc(C)nc21` belongs 3.98 µM [rising, full curve, poor fit].
Still for that read-out and setting: to `Cc1ccccc1-c1nc(-c2ccc(NC(=O)c3ccc4c(c3)OCO4)cc2)no1` belongs 9.2 µM [falling, partial curve, poor fit]; to `Cn1c(=O)c(C(=O)Nc2ncccc2O)c(O)c2ccccc21`, 7.08 µM [falling, full curve]; to `N#Cc1ccc(Oc2cccnc2)cc1C#N`, 0.58 µM [falling, full curve].
On the same count and under the same terms, to `CC(=O)N1CCN(C(=O)CSc2cc(C)c(Br)cc2C)CC1` belongs 3.16 µM [rising, partial curve, poor fit].
`O=C(CCc1nnc(CCCCc2ccccc2)o1)N(CCO)Cc1ccccc1`: under setting [1], the AC50 was 3.16 µM [falling, partial curve, poor fit].
On the same count and under the same terms, to `COc1cccc(NC(=O)CC(=O)c2ccc([N+](=O)[O-])cc2)c1` belongs 7.94 µM [falling, partial curve]; to `N#C/C(=C\c1coc2ccc(O)cc2c1=O)C(=O)Nc1nc2ccccc2s1`, 11.2 µM [falling, partial curve, poor fit]; to `O=C(O)c1cc(-c2ccc3ccccc3c2)nc2ccc(F)cc12`, 10 µM [falling, partial curve, poor fit].
Still for that read-out and setting: for `CS(=O)(=O)Nc1ccc(C2=NN(C(=O)c3ccco3)C(c3ccccc3)C2)cc1` (configuration not stated) the value was 1.3 µM [rising, partial curve]; for `Cc1ccc(/C=C/c2nc3ccccc3[nH]2)cc1`, 1.41 µM [falling, full curve].
The same measure, in the same setting: to `COc1ccccc1Cn1c(=S)[nH]c2cc(C(=O)NCCN3CCOCC3)ccc2c1=O` belongs 35.5 µM [falling, partial curve, poor fit].
Regarding `CC(C)S(=O)(=O)c1cnc(-c2cccnc2)nc1N`, under setting [1], the AC50 was 11.2 µM [rising, partial curve, poor fit].
On the same count and under the same terms, for `CCn1c(C)nc2c(=O)oc3ccccc3c21` the value was 0.0092 µM [falling, full curve, poor fit]; for `CCCCn1c(=O)n(Cc2cccc(F)c2)c(=O)c2c1ncn2Cc1ccco1`, 2.59 µM [falling, full curve, poor fit]; for `Cc1ccc2nc(N3C(=O)C(O)=C(C(=O)c4ccco4)C3c3cccc(O)c3)sc2c1` (configuration not stated), 1.41 µM [falling, full curve].
On to `Fc1c(F)c(F)c(N/N=C/c2c[nH]c3ccccc23)c(F)c1F`, for which, under setting [1], the AC50 was 29.1 µM [rising, single point].
Same read-out and setting: for `O=C(/C=C/c1c(Cl)cccc1Cl)NCc1ccccc1` the value was 7.31 µM [rising, partial curve, poor fit]; for `Cc1ccc(CNC(=O)C2CC2c2ccccc2)cc1` (configuration not stated), 5.8 µM [rising, full curve]; for `COc1ccc(C/C(N)=N/OC(=O)Cc2ccccc2)cc1`, 7.94 µM [rising, partial curve].
Same read-out and setting: to `COc1ccc(C2=NS(=O)(=O)N(C)C(C(=O)N3CCCCC3)=C2)cc1OC` belongs 5.01 µM [falling, partial curve, poor fit]; to `COc1cccc(C(=O)Nc2cccc(-c3ccc(N4CCOCC4)nn3)c2)c1OC`, 14.6 µM [falling, single point]; to `Cc1cc(C(=O)NC2CCCc3c2cnn3-c2cccc(C)c2C)c(C)o1` (configuration not stated), 14.1 µM [falling, partial curve].
The same measure, in the same setting: for `COc1ccc(N2CC(NC(=O)c3cc4ccccc4o3)CC2=O)cc1OC` (configuration not stated) the value was 22.4 µM [falling, single point]; for `CCc1cccc(NS(=O)(=O)c2c(C)nc3sc(CC)nn3c2=O)c1`, 0.631 µM [falling, full curve, poor fit].
On to `CCOc1ccc(NC(=O)CCC(=O)NNC(=O)Nc2ccc(Cl)cc2)cc1`, for which the AC50 under setting [1] was 2.51 µM [rising, partial curve].
Still for that read-out and setting: for `COc1ccc(S(=O)(=O)Cc2ccc(C(=O)N3CCN(c4cccc(C)c4)C(C)C3)o2)cc1` (configuration not stated) the value was 29.1 µM [rising, single point].
The same measure, in the same setting: for `CC[C@H]1C(c2ccc(F)cc2)=NN(c2ccccc2)[C@@H]1CO` the value was 29.1 µM [falling, single point]; for `COCCSc1ccccc1C(=O)N1CCOCC1`, 25.9 µM [rising, single point].
Still for that read-out and setting: to `Cc1ccc(C2=NS(=O)(=O)N(C)C(C(=O)NCc3ccc(F)cc3)=C2)cc1` belongs 15.8 µM [falling, single point]; to `COC(=O)c1ccc(NC(=O)Nc2ccc(OC)cc2)cc1`, 10 µM [falling, partial curve, poor fit].
In the case of `CCOc1cc(/C=C/C(=O)c2ccc(C)cc2)ccc1OCC(=O)N(C)C`, under setting [1], the AC50 is 10.3 µM [falling, partial curve, poor fit].
Same read-out and setting: to `CC(C)C(=O)Nc1ccc(NC(=O)c2ccccn2)cn1` belongs 25.1 µM [falling, single point].
As to `CCOc1ccc2nc(N3C(=O)CNC3=S)sc2c1`, the AC50 was 3.98 µM [rising, partial curve, poor fit] under setting [1] and 7.08 µM [falling, partial curve] under setting [2].
In the case of `COCCN(C(=O)c1ccco1)c1nc(-c2ccccc2)cs1`, the concentration at half-maximal activity (AC50) under setting [1] was 3.16 µM [rising, partial curve, poor fit].
The same measure, in the same setting: to `Cc1ccc(C)c(CSc2nnc(CCN)o2)c1` belongs 23.1 µM [rising, single point].
On the same count and under the same terms, to `O=C1N=c2ccccc2=C1c1[nH]c(=S)[nH]c1O` belongs 5.8 µM [falling, partial curve, poor fit].
Same read-out and setting: for `CCN(CC(=O)Nc1sc2c(c1C#N)CCC(C)C2)Cc1nc2ccccc2c(=O)[nH]1` (configuration not stated) the value was 20 µM [rising, partial curve, poor fit]; for `COC(=O)c1ccccc1NC(=O)C1CCCO1` (configuration not stated), 32.6 µM [rising, single point].
Turning to `Cn1nnc2c(NCc3ccccc3Cl)ncnc21`, the AC50 under setting [1] is 14.1 µM [falling, single point].
The same measure, in the same setting: to `COc1ccccc1-n1cnc2cc(NS(=O)(=O)c3ccccc3)ccc21` belongs 29.1 µM [falling, single point]; to `Cc1cc(OCc2cc(C(=O)N3CCN(CC4CC4)CC3)no2)cc(C)c1Cl`, 22.4 µM [falling, single point].
Still for that read-out and setting: for `COc1ccc(C)cc1NC(=O)C(OC(=O)c1ccc(Cl)c(S(=O)(=O)N(C)c2ccccc2)c1)c1ccccc1` (configuration not stated) the value was 5.8 µM [falling, partial curve].
On the same count and under the same terms, for `Cc1ccc(C2CC(=O)Oc3cc(C)c(Br)c(C)c32)cc1` (configuration not stated) the value was 29.1 µM [rising, single point]; for `COc1cccc(NC(=O)c2ccc(S(=O)(=O)N(C)C)cc2)c1`, 12.6 µM [falling, partial curve, poor fit]; for `CC(NC(=O)c1nn(C)c2c1CS(=O)(=O)c1ccccc1-2)c1ccccc1` (configuration not stated), 1.12 µM [rising, partial curve, poor fit].
On to `O=C(NCc1ccc(Cl)cc1)C(=O)NCC1OCCN1C(=O)c1cccs1` (configuration not stated), for which, under setting [1], the AC50 is 25.9 µM [rising, partial curve, poor fit].
As for `CS(=O)(=O)c1ncc(Cl)c(C(=O)Nc2ccc(N3CCOCC3)cc2)n1`, the AC50 by setting is: under setting [1], 5.17 µM [falling, full curve, poor fit]; under setting [2], 6.51 µM [rising, partial curve, poor fit].
In the case of `O=C(COc1ccc(Cl)cc1)NCCSc1ccccc1`, the AC50 under setting [1] was 5.8 µM [rising, full curve, poor fit].
On the same count and under the same terms, to `CCc1nnc(NC(=O)/C=C/c2ccco2)s1` belongs 18.4 µM [falling, partial curve].
On the same count and under the same terms, for `COc1ccccc1NS(=O)(=O)c1cc(NC(=O)c2cccc(S(=O)(=O)N(C)C)c2)ccc1N1CCOCC1` the value was 4.11 µM [rising, full curve, poor fit].
Still for that read-out and setting: to `CCC1Sc2ccccc2N(CC(=O)NCCC(C)C)C1=O` (configuration not stated) belongs 35.5 µM [falling, partial curve, poor fit]; to `COC(=O)c1cccc(Oc2cccc(Cl)n2)c1`, 12.6 µM [rising, partial curve, poor fit].
As for `CN(CC(=O)NC1CCCCC1)S(=O)(=O)c1cccc2nsnc12`, under setting [1], the AC50 was 35.5 µM [falling, single point].
Still for that read-out and setting: to `O=C(O)C1CCC(CNS(=O)(=O)c2ccccc2)CC1` (configuration not stated) belongs 12.6 µM [rising, single point]; to `CSc1ncccc1-c1nc2ccccc2[nH]1`, 0.461 µM [falling, full curve].
Still for that read-out and setting: to `Cc1nn(C)c(C)c1NC(=O)Nc1ccc(Cl)c(Cl)c1` belongs 17.8 µM [rising, partial curve, poor fit]; to `CCOC(=O)COc1ccc(S(=O)(=O)Nc2ccc(C)cc2)cc1`, 29.1 µM [falling, single point]; to `Cc1cccc(N=C2C(=O)Nc3c(Cl)cccc32)c1`, 10 µM [rising, partial curve, poor fit].
Same read-out and setting: for `O=c1oc2ccccc2c(O)c1CN1CCCCC1` the value was 0.282 µM [falling, full curve, poor fit].
As for `CCCc1nc2oc3c(NCCCN(C)C)ncnc3c2c2c1CCCC2`, the concentration at half-maximal activity (AC50) runs as follows: under setting [1], 20 µM [falling, partial curve]; under setting [2], 12.6 µM [rising, partial curve, poor fit].
Turning to `Cc1ccccc1OCc1nnc(SCCN2CCCC2)n1-c1ccccc1`, the AC50 under setting [1] is 0.631 µM [falling, full curve, poor fit].
On to `O=C(Oc1ccc2cc(Br)ccc2c1)c1cccnc1`, for which the AC50 under setting [1] was 2.24 µM [rising, partial curve, poor fit].

A word on the AC50: it is the concentration at which the activity in the assay is half-maximal.
